According to the supplement of paper PMC10849652:
The other results are listed elsewhere or left out.

Sequences of proteins named here, by UniProt entry; tags and fusion partners are left off. A change or cut given only in a name is not applied to a line headed by its entry.
UniProt Q14847: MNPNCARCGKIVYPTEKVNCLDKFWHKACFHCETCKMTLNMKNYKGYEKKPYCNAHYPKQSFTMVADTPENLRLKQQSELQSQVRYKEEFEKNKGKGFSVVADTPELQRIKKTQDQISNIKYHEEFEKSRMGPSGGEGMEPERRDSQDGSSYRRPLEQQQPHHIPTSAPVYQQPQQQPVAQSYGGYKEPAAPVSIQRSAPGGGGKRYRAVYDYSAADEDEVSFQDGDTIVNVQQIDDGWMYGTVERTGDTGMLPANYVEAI
UniProt E9PP15: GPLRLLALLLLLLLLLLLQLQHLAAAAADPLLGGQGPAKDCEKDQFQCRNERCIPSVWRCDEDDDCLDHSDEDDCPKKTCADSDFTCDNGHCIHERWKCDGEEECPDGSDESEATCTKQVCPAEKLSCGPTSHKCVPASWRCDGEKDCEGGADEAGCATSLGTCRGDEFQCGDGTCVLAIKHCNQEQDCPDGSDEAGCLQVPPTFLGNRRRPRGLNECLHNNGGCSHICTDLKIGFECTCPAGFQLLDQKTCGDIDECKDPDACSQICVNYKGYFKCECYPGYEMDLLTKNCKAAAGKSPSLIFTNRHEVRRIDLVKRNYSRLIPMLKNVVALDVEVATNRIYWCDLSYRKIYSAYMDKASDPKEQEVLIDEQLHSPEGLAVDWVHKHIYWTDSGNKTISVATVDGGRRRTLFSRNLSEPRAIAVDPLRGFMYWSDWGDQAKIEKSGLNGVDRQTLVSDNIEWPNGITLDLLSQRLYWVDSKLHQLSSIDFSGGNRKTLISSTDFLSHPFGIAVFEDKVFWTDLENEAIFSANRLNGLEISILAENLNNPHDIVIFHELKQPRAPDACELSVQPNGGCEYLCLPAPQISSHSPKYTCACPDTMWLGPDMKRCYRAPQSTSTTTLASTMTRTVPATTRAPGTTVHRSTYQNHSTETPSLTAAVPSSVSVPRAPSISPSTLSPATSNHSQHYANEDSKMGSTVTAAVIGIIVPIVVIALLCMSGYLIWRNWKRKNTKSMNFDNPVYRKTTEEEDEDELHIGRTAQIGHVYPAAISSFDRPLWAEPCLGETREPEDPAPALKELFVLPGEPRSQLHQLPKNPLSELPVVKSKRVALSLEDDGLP
UniProt Q9UN81: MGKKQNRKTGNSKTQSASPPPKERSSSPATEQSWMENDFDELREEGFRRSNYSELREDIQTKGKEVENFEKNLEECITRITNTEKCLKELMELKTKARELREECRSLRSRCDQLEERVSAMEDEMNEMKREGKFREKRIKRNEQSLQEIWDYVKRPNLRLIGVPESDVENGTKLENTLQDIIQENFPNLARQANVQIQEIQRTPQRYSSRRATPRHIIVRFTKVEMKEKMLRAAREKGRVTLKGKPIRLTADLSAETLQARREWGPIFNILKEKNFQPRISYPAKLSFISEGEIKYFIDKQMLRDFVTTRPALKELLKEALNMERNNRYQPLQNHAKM
UniProt Q9GZZ8: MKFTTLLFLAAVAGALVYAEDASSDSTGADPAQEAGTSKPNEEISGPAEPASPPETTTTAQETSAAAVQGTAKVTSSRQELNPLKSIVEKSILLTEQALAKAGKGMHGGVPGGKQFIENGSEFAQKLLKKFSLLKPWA
UniProt Q6P5S2: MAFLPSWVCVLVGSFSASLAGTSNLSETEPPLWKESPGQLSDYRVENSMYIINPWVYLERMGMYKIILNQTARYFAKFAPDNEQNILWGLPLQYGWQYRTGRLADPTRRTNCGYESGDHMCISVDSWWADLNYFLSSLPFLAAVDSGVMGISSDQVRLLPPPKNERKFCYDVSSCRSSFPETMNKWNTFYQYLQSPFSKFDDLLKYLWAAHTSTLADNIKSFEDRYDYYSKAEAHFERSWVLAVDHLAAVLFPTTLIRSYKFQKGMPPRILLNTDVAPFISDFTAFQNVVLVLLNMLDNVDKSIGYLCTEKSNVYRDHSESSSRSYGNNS
UniProt Q8NG48: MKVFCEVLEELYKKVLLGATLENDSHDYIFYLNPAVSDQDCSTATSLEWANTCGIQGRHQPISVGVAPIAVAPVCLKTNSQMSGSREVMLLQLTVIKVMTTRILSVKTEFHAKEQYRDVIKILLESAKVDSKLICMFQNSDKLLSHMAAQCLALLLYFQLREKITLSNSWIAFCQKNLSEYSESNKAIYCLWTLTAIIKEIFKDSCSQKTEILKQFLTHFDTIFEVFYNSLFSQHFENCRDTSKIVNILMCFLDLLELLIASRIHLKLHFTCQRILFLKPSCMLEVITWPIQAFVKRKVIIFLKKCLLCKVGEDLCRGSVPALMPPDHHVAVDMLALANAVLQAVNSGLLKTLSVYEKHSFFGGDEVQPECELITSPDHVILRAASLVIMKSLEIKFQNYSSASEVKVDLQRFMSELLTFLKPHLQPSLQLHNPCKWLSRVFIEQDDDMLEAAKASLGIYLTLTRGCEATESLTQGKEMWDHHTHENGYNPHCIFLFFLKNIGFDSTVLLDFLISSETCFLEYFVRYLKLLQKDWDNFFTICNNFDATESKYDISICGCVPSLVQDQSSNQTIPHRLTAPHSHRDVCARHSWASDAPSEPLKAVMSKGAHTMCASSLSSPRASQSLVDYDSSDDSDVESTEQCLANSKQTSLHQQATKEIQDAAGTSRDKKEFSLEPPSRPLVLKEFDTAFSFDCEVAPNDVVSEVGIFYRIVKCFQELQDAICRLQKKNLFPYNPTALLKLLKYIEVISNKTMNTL
UniProt P49917: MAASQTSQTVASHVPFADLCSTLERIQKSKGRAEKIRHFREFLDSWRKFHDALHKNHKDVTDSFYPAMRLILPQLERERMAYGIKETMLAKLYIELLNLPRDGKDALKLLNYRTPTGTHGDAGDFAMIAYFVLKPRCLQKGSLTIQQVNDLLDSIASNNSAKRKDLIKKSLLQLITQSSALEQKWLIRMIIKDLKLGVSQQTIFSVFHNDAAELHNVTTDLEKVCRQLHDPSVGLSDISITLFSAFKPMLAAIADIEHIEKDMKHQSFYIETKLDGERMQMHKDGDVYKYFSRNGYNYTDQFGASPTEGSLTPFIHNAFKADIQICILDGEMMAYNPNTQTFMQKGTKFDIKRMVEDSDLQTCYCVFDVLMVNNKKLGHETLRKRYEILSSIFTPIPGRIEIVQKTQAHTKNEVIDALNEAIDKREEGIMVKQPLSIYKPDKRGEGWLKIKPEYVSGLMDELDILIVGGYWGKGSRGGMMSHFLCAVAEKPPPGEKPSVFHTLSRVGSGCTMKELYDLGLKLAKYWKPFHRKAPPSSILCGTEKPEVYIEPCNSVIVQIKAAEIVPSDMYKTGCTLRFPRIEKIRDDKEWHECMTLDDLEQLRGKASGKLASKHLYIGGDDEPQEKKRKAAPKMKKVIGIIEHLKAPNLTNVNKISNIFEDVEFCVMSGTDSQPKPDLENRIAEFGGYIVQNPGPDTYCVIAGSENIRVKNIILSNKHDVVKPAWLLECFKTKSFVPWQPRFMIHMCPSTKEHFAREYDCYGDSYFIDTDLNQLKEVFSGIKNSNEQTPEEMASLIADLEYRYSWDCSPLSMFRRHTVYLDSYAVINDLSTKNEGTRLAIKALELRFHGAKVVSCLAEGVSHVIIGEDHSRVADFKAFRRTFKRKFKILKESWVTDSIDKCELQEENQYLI
UniProt Q6P1Q0: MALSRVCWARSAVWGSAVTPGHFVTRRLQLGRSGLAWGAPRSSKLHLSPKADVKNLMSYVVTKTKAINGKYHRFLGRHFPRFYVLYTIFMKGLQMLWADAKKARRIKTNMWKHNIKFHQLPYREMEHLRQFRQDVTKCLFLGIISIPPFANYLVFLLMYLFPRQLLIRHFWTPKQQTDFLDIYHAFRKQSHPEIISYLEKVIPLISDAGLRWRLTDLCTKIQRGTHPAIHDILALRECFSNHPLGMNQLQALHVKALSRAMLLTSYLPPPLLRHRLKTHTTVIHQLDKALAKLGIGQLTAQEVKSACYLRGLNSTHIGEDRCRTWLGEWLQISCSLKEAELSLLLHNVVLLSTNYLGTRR
UniProt Q8WVP7: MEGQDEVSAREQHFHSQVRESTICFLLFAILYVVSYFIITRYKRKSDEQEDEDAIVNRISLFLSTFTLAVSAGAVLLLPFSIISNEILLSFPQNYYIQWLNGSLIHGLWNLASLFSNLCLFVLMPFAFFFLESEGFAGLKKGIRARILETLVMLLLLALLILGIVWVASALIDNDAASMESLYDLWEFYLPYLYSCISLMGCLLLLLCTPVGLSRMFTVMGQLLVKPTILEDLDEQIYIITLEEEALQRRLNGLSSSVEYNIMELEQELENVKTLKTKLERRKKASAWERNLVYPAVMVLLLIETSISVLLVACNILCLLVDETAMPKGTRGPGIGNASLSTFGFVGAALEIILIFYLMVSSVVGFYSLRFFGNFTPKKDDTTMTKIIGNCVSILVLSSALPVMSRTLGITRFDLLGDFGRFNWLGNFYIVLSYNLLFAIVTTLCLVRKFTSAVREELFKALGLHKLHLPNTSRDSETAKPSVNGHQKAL
UniProt P07942: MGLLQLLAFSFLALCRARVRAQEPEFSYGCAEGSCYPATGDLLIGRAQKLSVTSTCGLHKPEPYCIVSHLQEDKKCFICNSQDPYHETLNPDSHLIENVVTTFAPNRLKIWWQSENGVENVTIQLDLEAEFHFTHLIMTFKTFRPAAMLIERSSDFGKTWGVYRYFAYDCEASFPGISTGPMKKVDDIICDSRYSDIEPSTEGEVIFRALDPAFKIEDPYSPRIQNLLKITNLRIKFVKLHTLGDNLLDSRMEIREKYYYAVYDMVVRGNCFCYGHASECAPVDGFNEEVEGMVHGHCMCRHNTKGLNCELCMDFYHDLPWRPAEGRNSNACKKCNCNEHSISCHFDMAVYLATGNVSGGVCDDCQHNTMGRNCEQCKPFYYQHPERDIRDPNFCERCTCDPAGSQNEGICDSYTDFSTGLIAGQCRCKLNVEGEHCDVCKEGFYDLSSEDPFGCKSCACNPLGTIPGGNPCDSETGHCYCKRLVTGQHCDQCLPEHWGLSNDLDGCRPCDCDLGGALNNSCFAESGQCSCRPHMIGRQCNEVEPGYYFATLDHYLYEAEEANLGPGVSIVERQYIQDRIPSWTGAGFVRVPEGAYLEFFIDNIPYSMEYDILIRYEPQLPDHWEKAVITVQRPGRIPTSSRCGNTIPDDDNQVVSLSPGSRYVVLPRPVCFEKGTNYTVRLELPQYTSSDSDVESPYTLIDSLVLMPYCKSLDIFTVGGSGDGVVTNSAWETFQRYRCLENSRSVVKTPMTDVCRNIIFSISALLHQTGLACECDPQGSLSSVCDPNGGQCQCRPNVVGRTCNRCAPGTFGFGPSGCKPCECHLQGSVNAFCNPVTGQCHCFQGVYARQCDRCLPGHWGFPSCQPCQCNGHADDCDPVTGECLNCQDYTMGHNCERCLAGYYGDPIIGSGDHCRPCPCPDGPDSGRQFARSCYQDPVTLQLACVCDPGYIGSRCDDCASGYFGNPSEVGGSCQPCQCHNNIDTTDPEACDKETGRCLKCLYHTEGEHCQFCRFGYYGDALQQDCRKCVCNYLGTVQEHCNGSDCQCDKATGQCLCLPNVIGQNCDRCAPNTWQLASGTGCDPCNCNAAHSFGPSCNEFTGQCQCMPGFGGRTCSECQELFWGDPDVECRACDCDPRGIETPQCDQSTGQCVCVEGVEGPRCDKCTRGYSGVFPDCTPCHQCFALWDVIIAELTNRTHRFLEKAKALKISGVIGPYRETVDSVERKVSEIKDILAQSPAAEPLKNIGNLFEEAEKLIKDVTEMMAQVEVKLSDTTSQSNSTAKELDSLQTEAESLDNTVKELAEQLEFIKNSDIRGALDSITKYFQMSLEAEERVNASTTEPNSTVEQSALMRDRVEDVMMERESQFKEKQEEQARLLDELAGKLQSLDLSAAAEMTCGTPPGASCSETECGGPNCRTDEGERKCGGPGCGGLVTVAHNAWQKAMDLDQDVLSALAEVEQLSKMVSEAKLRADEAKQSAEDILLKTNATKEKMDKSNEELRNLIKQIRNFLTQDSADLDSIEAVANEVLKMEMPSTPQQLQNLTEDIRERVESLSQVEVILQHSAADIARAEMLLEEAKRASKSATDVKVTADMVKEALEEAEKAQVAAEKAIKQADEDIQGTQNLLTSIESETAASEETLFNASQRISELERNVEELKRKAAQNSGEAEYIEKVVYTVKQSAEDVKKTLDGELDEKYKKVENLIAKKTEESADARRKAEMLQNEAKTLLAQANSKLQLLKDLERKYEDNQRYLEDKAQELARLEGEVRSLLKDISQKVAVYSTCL
UniProt O14910: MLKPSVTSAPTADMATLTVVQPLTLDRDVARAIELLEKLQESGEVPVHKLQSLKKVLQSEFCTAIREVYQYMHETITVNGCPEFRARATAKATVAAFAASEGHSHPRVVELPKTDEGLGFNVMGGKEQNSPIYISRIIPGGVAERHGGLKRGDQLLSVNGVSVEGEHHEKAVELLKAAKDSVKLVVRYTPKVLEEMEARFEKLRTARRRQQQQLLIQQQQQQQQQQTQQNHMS
UniProt Q9BT23: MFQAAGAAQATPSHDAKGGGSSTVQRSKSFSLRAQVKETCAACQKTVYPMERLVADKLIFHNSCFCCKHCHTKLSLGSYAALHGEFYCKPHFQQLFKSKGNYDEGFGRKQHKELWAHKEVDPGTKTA

How the values were obtained:
Experiment in all cases: log2 fold change, soluble protein after heating vs DMSO (PISA); higher = thermal stabilisation; K562 cells, 10 uM, 30 min; active = over 0.2 and 3.5 SD of the protein, either way, in both replicates (recomputed)
[1] = compound: NC(=O)Nc1cc(-c2cccc(F)c2)sc1C(=O)N[C@H]1CCCNC1
Summary of the method: (§1)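 K562 cells at 2×10^6 cells/mL were treated with 10 μM compound for 30 min. Aliquots were heated for 3 min across 48°C-58°C, pooled, and extracted in PBS with 0.5% NP-40 at 4°C; soluble protein was the supernatant after 21,000xg for 90 min. Soluble protein was quantified by TMTpro 16plex LC-MS/MS with channel sums equalised, and reported as log2 fold change in thermal stability against DMSO controls, with values from duplicates.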

[2] = compound: NC(=O)c1cnc(N[C@@H]2CCCC[C@@H]2N)nc1Nc1cccc(-n2nccn2)c1
Summary of the method: as §1

[3] = compound: NCC(=O)Nc1ccc(-n2nc(C(F)(F)F)cc2-c2ccc3c(ccc4ccccc43)c2)cc1
Summary of the method: as §1

entinostat = compound: Nc1ccccc1NC(=O)c1ccc(CNC(=O)OCc2cccnc2)cc1 [entinostat]
Summary of the method: as §1

vorinostat = compound: O=C(CCCCCCC(=O)Nc1ccccc1)NO [vorinostat]
Summary of the method: as §1

citarinostat = compound: O=C(CCCCCCNC(=O)c1cnc(N(c2ccccc2)c2ccccc2Cl)nc1)NO [citarinostat]
Summary of the method: as §1

[4] = compound: O=C1NC(=O)C(c2cnc3ccccn23)=C1c1cn2c3c(cc(F)cc13)CN(C(=O)N1CCCCC1)CC2
Summary of the method: as §1

[5] = compound: c1cc(OCCN2CCCCC2)cc(-c2n[nH]c3ccc(-c4nnc[nH]4)cc23)c1
Summary of the method: as §1

entospletinib = compound: c1cn2cc(-c3ccc4cn[nH]c4c3)nc(Nc3ccc(N4CCOCC4)cc3)c2n1 [entospletinib]
Summary of the method: as §1

[6] = compound: NC1(c2ccc(-c3nc4ccn5c(=O)[nH]nc5c4cc3-c3ccccc3)cc2)CCC1
Summary of the method: as §1

silmitasertib = compound: O=C(O)c1ccc2c(c1)nc(Nc1cccc(Cl)c1)c1ccncc12 [silmitasertib]
Summary of the method: as §1

Measured: log2 fold change

LRRC4B (UniProt Q9NT99)
inactive: [1] -0.234 | [2] 0.088 | [3] -0.062 | entinostat -0.294 | vorinostat -0.084 | citarinostat -0.1 | [4] -0.073 | [5] 0.047 | entospletinib -0.133

LANCL3 (UniProt Q6ZV70)
inactive: [1] 0.116 | [2] 0.031 | entinostat -0.158 | [4] -0.029

LIN28B (UniProt Q6ZN17)
inactive: [1] 0.012 | [2] 0.043 | [6] 0.186 | [3] 0.087 | entinostat -0.066 | vorinostat -0.051 | citarinostat -0.015 | silmitasertib 0.08 | [4] 0.145 | [5] -0.175 | entospletinib 0.112

LIN9 isoform 2 (UniProt Q5TKA1)
inactive: [1] 0.095 | [2] -0.159 | [3] 0.085 | entinostat 0.015 | citarinostat -0.322 | [4] 0.038 | [5] -0.217 | entospletinib 0.166

LCMT2 (UniProt O60294)
inactive: [1] -0.003 | [6] 0.029 | [3] 0.149 | entinostat 0.019 | vorinostat -0.047 | citarinostat 0.256 | silmitasertib -0.284 | [4] 0.004 | [5] 0.055 | entospletinib 0.334

Two records picked at random from the list so far:
LANCL3 (UniProt Q6ZV70)
inactive: [1] 0.116 | [2] 0.031 | entinostat -0.158 | [4] -0.029

LIN9 isoform 2 (UniProt Q5TKA1)
inactive: [1] 0.095 | [2] -0.159 | [3] 0.085 | entinostat 0.015 | citarinostat -0.322 | [4] 0.038 | [5] -0.217 | entospletinib 0.166

Later entries.

LASP1 (UniProt Q14847)
inactive: [1] 0.018 | [2] 0.024 | [6] 0.029 | [3] 0.058 | entinostat 0.001 | vorinostat -0.019 | citarinostat 0.012 | silmitasertib -0.04 | [4] -0.042 | [5] 0.011 | entospletinib -0.018

LCMT1 (UniProt Q9UIC8)
inactive: [1] -0.032 | [2] -0.018 | [6] -0.151 | [3] 0.015 | entinostat 0.002 | vorinostat 0.027 | citarinostat 0.042 | silmitasertib -0.024 | [4] -0.057 | [5] 0.055 | entospletinib -0.036

LRBA, A0A494BZW2
inactive: [1] 0.036 | [2] -0.031 | [6] -0.114 | entinostat 0.232 | vorinostat -0.032 | citarinostat 0.03 | silmitasertib 0.011 | [4] 0.063 | [5] 0.028

LRP8 (UniProt E9PP15)
inactive: [1] 0.052 | [2] -0.104 | [6] -0.152 | [3] 0.083 | entinostat 0.07 | citarinostat 0.03 | silmitasertib 0.006 | [4] -0.089 | [5] -0.052 | entospletinib 0.086

L1RE1 (UniProt Q9UN81)
inactive: [1] -0.079 | [2] 0.211 | [6] -0.004 | [3] 0.062 | entinostat -0.048 | citarinostat -0.206 | silmitasertib 0.199 | [4] -0.226 | [5] -0.194 | entospletinib 0.053

LENG1 (UniProt Q96BZ8)
inactive: [1] 0.106 | [2] -0.057 | [6] 0.048 | [3] -0.011 | entinostat 0.03 | vorinostat -0.048 | citarinostat -0.034 | silmitasertib -0.037 | [4] -0.065 | [5] -0.041 | entospletinib 0.03

LMTK2 (UniProt Q8IWU2)
inactive: [1] -0.047 | [2] 0.009 | [6] -0.018 | [3] 0.067 | entinostat 0.03 | vorinostat -0.079 | silmitasertib 0.169 | [4] 0.023

LACRT (UniProt Q9GZZ8)
inactive: [1] 0.298 | [2] 0.301 | [6] -0.143 | [3] 0.133 | entinostat 0.095 | citarinostat 0.369 | silmitasertib -0.062 | [4] -0.746 | [5] 0.348 | entospletinib 0.14

LPCAT1 (UniProt Q8NF37)
inactive: [1] -0.073 | [2] -0.026 | [6] -0.097 | [3] -0.031 | entinostat 0.02 | vorinostat 0.019 | citarinostat 0.016 | silmitasertib 0.015 | [4] -0.015 | [5] -0.058 | entospletinib 0.02

LEG1 (UniProt Q6P5S2)
inactive: [1] 0.167 | [2] -0.136 | [6] -0.029 | [3] -0.333 | entinostat 0.026 | vorinostat 0.199 | silmitasertib -0.351

LINS1 (UniProt Q8NG48)
inactive: [1] 0.027 | [2] 0.024 | [6] -0.085 | entinostat 0.073 | silmitasertib -0.051 | [4] -0.038

LIG4 (UniProt P49917)
inactive: [1] 0.062 | [3] -0.106 | entinostat 0.054 | vorinostat 0.063 | citarinostat 0.19 | [5] -0.012 | entospletinib -0.005

LETMD1 isoform 7 (UniProt Q6P1Q0)
inactive: [1] -0.008 | [2] -0.033 | [6] -0.02 | entinostat 0.038 | vorinostat 0.03 | citarinostat 0.274 | silmitasertib 0.031 | [4] -0.036 | [5] -0.309 | entospletinib -0.054

LAMTOR4 (UniProt Q0VGL1)
inactive: [1] -0.024 | [2] -0.13 | [6] -0.21 | [3] -0.111 | entinostat 0.058 | vorinostat -0.048 | citarinostat 0.085 | silmitasertib 0.027 | [4] -0.133 | [5] -0.075 | entospletinib 0.009

LMBR1 isoform 3 (UniProt Q8WVP7)
inactive: [1] 0.047 | [2] -0.11 | [6] -0.104 | [3] -0.048 | entinostat 0.071 | vorinostat -0.016 | silmitasertib 0.014 | [4] -0.141

LAPTM4B (UniProt Q86VI4)
inactive: [1] -0.109 | [6] 0.116 | entinostat -0.126 | vorinostat -0.064 | citarinostat 0.092 | silmitasertib 0.025 | [5] -0.178

LPL (UniProt P06858)
inactive: [1] -0.032 | [2] 0.088 | [6] 0.124 | [3] 0.061 | entinostat -0.053 | vorinostat 0.039 | citarinostat -0.256 | silmitasertib -0.03 | [5] -0.243 | entospletinib 0.202

LIN37 (UniProt Q96GY3)
inactive: [1] -0.077 | [2] -0.064 | entinostat 0.017 | vorinostat -0.061

LAMB1 (UniProt P07942)
inactive: [1] -0.014 | [2] 0.011 | [6] -0.025 | [3] -0.021 | entinostat -0.049 | vorinostat 0.012 | citarinostat 0.059 | silmitasertib 0.039 | [4] -0.011 | [5] -0.007 | entospletinib -0.012

LCP2 (UniProt Q13094)
inactive: [1] -0.118 | [2] -0.036 | [3] -0.094 | entinostat 0.046 | vorinostat -0.059 | citarinostat 0.113 | [4] -0.062 | [5] -0.118 | entospletinib -0.04

LIN7A (UniProt O14910)
inactive: [1] -0.082 | [2] 0.058 | [6] -0.069 | [3] -0.065 | entinostat 0.003 | citarinostat -0.024 | silmitasertib 0.033 | [4] -0.119 | [5] -0.063 | entospletinib 0.01

LIMD2 (UniProt Q9BT23)
inactive: [1] -0.035 | [2] 0.044 | entinostat -0.052 | citarinostat -0.038 | [5] -0.158 | entospletinib 0.204

LPGAT1 (UniProt Q92604)
inactive: [1] 0.038 | [2] 0.048 | [6] -0.102 | [3] 0.063 | entinostat -0.047 | citarinostat 0.157 | silmitasertib -0.015 | [4] -0.015 | [5] -0.108

LCN2 isoform 2 (UniProt P80188)
inactive: [1] 1.25 | entinostat 0.04

LAS1L (UniProt Q9Y4W2)
inactive: [1] 0.271 | [2] -0.122 | [3] 0.088 | entinostat 0.024 | vorinostat 0.078 | [4] 0.084

LRP6 (UniProt O75581)
inactive: [1] 0.218 | [2] -0.145 | entinostat -0.102 | vorinostat 0.017 | citarinostat -0.024 | [5] 0.243 | entospletinib 0.014

LRFN1 (UniProt Q9P244)
inactive: [1] -0.14 | [3] -0.166 | entinostat 0.133 | citarinostat -0.06 | [4] 0.036 | [5] 0.716

LRRC41 (UniProt Q15345)
inactive: [1] -0.108 | entinostat 0.256
